Laboratory results from patent publication US7678791B2, “Nitroheteroaryl-containing rifamycin derivatives” (Cumbre IP Ventures, L.P., priority 2006, dated 2010).

Test system: Mycobacterium tuberculosis H37Rv (rif-resistant)
Assay: microbe, parasite or virus in culture
Format: cell-based
Conditions: read-out: MIC Mycobacterium tuberculosis H37Rv (rif-resistant)

Molecule `CO[C@H]1/C=C/O[C@@]2(C)Oc3c(C)c(O)c4c(O)c(c(/C=N/N5CCN(C)CC5)c(O)c4c3C2=O)NC(=O)/C(C)=C\C=C\[C@H](C)[C@H](O)[C@@H](C)[C@@H](O)[C@@H](C)[C@H](OC(C)=O)[C@@H]1C` [rifampin, reference compound] has an MIC of over 32 µg/mL.
